Measurements taken from publication PMC12514221.
These are yes or no findings as the source states them, for the method shown. In cells and extracts the contact can be indirect. Some binding calls cover weakened binding; strength is not graded here. Sequences can lack the tags named with a protein. Each block holds one binder with its values, some of them ahead of it.

Target: T1, CENTRIN 3 (CETN3), Myc-tagged (human) (UniProt O15182)
T1 sequence: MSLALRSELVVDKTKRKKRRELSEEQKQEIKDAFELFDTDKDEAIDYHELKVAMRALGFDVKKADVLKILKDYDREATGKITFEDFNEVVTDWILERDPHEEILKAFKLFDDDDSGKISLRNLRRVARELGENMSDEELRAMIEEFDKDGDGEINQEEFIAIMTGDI
Test: co-IP; HEK 293T cells transfected with the tagged plasmids, lysed after 48 h; supernatant divided and incubated with Myc-, Flag- and IgG-magnetic beads 4 to 5 h at 4 °C; wash buffer 0.1% Triton X-100, 50 mM Tris-Cl pH 7.4, 150 mM or 500 mM NaCl; Western blot

binding: binds
B1: USP49, Flag-tagged (enzyme, UniProt Q70CQ1 1-688)
chain: MDRCKHVGRLRLAQDHSILNPQKWCCLECATTESVWACLKCSHVACGRYIEDHALKHFEETGHPLAMEVRDLYVFCYLCKDYVLNDNPEGDLKLLRSSLLAVRGQKQDTPVRRGRTLRSMASGEDVVLPQRAPQGQPQMLTALWYRRQRLLARTLRLWFEKSSRGQAKLEQRRQEEALERKKEEARRRRREVKRRLLEELASTPPRKSARLLLHTPRDAGPAASRPAALPTSRRVPAATLKLRRQPAMAPGVTGLRNLGNTCYMNSILQVLSHLQKFRECFLNLDPSKTEHLFPKATNGKTQLSGKPTNSSATELSLRNDRAEACEREGFCWNGRASISRSLELIQNKEPSSKHISLCRELHTLFRVMWSGKWALVSPFAMLHSVWSLIPAFRGYDQQDAQEFLCELLHKVQQELESEGTTRRILIPFSQRKLTKQVLKVVNTIFHGQLLSQVTCISCNYKSNTIEPFWDLSLEFPERYHCIEKGFVPLNQTECLLTEMLAKFTETEALEGRIYACDQCNSKRRKSNPKPLVLSEARKQLMIYRLPQVLRLHLKRFRWSGRNHREKIGVHVVFDQVLTMEPYCCRDMLSSLDKETFAYDLSAVVMHHGKGFGSGHYTAYCYNTEGGFWVHCNDSKLNVCSVEEVCKTQAYILFYTQRTVQGNARISETHLQAQVQSSNNDEGRPQTFS

binding: binds
B2: USP44, Flag-tagged (enzyme, UniProt Q9H0E7 1-712)
chain: MLAMDTCKHVGQLQLAQDHSSLNPQKWHCVDCNTTESIWACLSCSHVACGRYIEEHALKHFQESSHPVALEVNEMYVFCYLCDDYVLNDNTTGDLKLLRRTLSAIKSQNYHCTTRSGRFLRSMGTGDDSYFLHDGAQSLLQSEDQLYTALWHRRRILMGKIFRTWFEQSPIGRKKQEEPFQEKIVVKREVKKRRQELEYQVKAELESMPPRKSLRLQGLAQSTIIEIVSVQVPAQTPASPAKDKVLSTSENEISQKVSDSSVKRRPIVTPGVTGLRNLGNTCYMNSVLQVLSHLLIFRQCFLKLDLNQWLAMTASEKTRSCKHPPVTDTVVYQMNECQEKDTGFVCSRQSSLSSGLSGGASKGRKMELIQPKEPTSQYISLCHELHTLFQVMWSGKWALVSPFAMLHSVWRLIPAFRGYAQQDAQEFLCELLDKIQRELETTGTSLPALIPTSQRKLIKQVLNVVNNIFHGQLLSQVTCLACDNKSNTIEPFWDLSLEFPERYQCSGKDIASQPCLVTEMLAKFTETEALEGKIYVCDQCNSKRRRFSSKPVVLTEAQKQLMICHLPQVLRLHLKRFRWSGRNNREKIGVHVGFEEILNMEPYCCRETLKSLRPECFIYDLSAVVMHHGKGFGSGHYTAYCYNSEGGFWVHCNDSKLSMCTMDEVCKAQAYILFYTQRVTENGHSKLLPPELLLGSQHPNEDADTSSNEILS
